From patent US10174081B2 (priority 2011, dated 2019)

Assay: peptide made by a vendor
Settings: whole synthesis, TFA salt

Substance	purity (crude or final not stated) [%]
KRFKKFFKKLKNSVKKRAKKFFKKPKVIGVTFPF	86.1
KRFKKFFKKLKNSVKKRFKKFFKKLKVIGVTFPF	89.7
KRFKKFFKKLK-NH2	97.2
KRAKKFFKKPK-NH2	88.2
KRAKKFFKKLK-NH2	94.5

Same assay, conditions: whole synthesis, TFA salt; run 1

Substance	purity (crude or final not stated) [% purity]
LLGDFFRKSKEKIGKEFKRIVQRIKDFLRNLVPRTES [LL-37]	95
LLGDFFRKSKEKIGKEFKRIVQRIKDFLRNLVPRTES [D-LL-37]	92.0

End groups of sequences in plain letters are not given here.
